Data as given in PMC7850985.
No constants are given. Whether binding was seen depends on the method and setting. Some results given as binding are weak or reduced against the parent protein; the word gives no strength.

Sequences of proteins named here, by UniProt entry; tags and fusion partners are left off. Residues count along the entry.
UniProt P35247, residues 199-375: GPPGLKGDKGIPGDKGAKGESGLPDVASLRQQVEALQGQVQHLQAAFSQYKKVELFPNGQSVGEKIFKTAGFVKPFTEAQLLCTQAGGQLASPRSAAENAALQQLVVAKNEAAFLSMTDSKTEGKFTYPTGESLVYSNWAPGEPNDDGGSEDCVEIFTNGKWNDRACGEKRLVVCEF
UniProt P11021, residues 19-654: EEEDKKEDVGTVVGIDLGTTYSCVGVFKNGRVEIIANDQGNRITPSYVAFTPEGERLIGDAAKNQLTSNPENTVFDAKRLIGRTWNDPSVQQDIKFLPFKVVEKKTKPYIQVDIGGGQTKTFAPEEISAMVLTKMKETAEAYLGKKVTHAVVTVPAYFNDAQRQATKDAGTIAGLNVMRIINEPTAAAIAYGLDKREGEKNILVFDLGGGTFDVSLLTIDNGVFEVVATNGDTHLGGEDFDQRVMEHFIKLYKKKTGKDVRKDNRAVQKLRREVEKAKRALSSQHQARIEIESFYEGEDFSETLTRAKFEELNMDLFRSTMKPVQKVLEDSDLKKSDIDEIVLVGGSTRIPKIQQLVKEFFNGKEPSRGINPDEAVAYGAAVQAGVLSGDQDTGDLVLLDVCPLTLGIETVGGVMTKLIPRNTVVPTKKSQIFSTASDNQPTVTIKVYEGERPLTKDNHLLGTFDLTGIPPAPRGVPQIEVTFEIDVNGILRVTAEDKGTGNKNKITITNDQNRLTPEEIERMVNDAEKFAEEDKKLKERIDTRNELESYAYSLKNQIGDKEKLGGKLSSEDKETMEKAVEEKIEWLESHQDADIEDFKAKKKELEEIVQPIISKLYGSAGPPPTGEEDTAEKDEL

Assays:
[1] = biological target: recombinant fragment of human surfactant protein D (rfhSP-D) (human) (UniProt P35247); experiment: ELISA; rfhSP-D (1 µg/ml in PBS) coated, blocked, incubated with GRP78 (1 µg/ml in PBS); probed with rabbit anti-human SP-D polyclonal antibodies (loss of antibody signal as read-out); both purified
[2] = biological target: recombinant fragment of human surfactant protein D (rfhSP-D) (human) (UniProt P35247); experiment: condition: only with rfhSP-D bound to monoclonal antibodies specific to the CRD domain of SP-D; ELISA; rfhSP-D bound to monoclonal antibodies specific to the CRD domain of SP-D, then GRP78 (Figure 7A, Bar 4); set-up not told in the methods; both purified
[3] = biological target: human recombinant GRP78 (Glucose Regulated Protein of 78 kDa) (human) (UniProt P11021); experiment: ELISA; GRP78 (1 µg/ml in PBS) coated; rfhSP-D (1 µg/ml in PBS) added with and without 5 mM CaCl2, or 10 mM EDTA; bound rfhSP-D probed with rabbit anti-human SP-D polyclonal antibodies; both purified

Row | Substance | binding [1] | binding [2] | binding [3]
1 | human recombinant GRP78 (Glucose Regulated Protein of 78 kDa) (from UniProt P11021 19-654) | binds | no binding | –
2 | recombinant fragment of human surfactant protein D (rfhSP-D) (from UniProt P35247 199-375) (domain or fragment) | – | – | binds
